From article PMC11640973, “The Detection of Toxic Amyloid-β Fibril Fragments Through a Surface Plasmon Resonance Immunoassay” (International Journal of Molecular Sciences, 2024) come the findings set out here.

Data set [1] is described as follows: Thioflavin-T (ThT) fluorescence assay of fibrillar content. The format is physicochemical. The settings on record: 5 µM Aβ42 with 20 µM ThT.
A short description of data set [2]: Transmission electron microscopy (TEM) of Aβ42 species. The format is physicochemical.

For the substance Amyloid-β1–42 [Aβ42], in data set [1] (6 h at 37 °C), the ThT fluorescence signal result is reported as “increase in the ThT fluorescence signal”. Moreover, the ThT signal result in data set [1] (5 days at 37 °C then freeze-and-thaw cycle) is listed as “remained unchanged”; in data set [1] (5 days at 37 °C), “clear plateau in the ThT signal”; in data set [1] (t = 0, excitation 448 nm, emission 485 nm), “did not show any signal”. The TEM morphology entry was “small fibrils, sometimes grouped in larger fibrillar aggregates” in data set [2] (6 h at 37 °C, 50 µM in PBS); “larger suprafibrillar macroaggregates” in data set [2] (5 days at 37 °C, 50 µM in PBS); “clear fragmentation of these macroaggregates” in data set [2] (5 days at 37 °C, then one freeze-and-thaw cycle); “no visible Aβ42 aggregates were detected by TEM” in data set [2] (t = 0).
